Screen size: about 31,000 sequences; about 1,400 (4.5%) were called active.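 How the source made its calls: active means median seed-adjusted z-score above 1 or below -1; inactive means the rest.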 The list shows a part of the results.
Test: Novel Modifiers of Survival Motor Neuron (SMN) Protein: Gene Identification via Genome-wide siRNA Screen;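 further: luminescence tracks full-length SMN protein made from the SMN2 reporter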
Conditions: HEK293T SMN2-luciferase reporter, siRNA knockdown, 72 h; actives lie on both sides
Method in brief: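 HEK293T cells stably carrying an SMN2 promoter/splicing cassette–luciferase reporter were reverse-transfected with 1 pmol siRNA per well (druggable-genome library, 3 siRNAs per gene) and grown 72 h at 37 °C. Luminescence, normalized to negative-control siRNA and log10-transformed, was scored as MAD.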

Sequence | median seed-adjusted z-score
CAACUGUUCCAACAACAAUTT against HAVCR1 | inactive: -0.306
GGAAGAUUGCAGAUGAGAATT against SHMT1 | inactive: 0.179
GGAUGUAGGUUCUUUUGAATT against GGPS1 | inactive: -0.372
CGACGAAUUUGUGACAAGATT against ALDH1L2 | inactive: 0
AAUCCUUGGUGAUGAUUUUTT against EPN1 | inactive: 0
CGAUCUUGCUAAUUUAGGUTT against MATR3 | inactive: -0.259
CCAACUAUCCUAAAUCAGUTT against NSUN3 | inactive: 0.302
GGAAAUGCUUCUACCAGAATT against ZNF25 | inactive: -0.145
CACUAUUCCCAGAUCUUUATT against SMAD5 | inactive: -0.701
GGAACAAGAUUGUCCUGAATT against UBL5 | inactive: -0.706
GCCUUCAAUUUUCAUACAATT against ZNF19 | inactive: 0
GGAUGUUCGUGGUAGCCGATT against ATP2A3 | inactive: -0.28
CAGAUUAUCUUCGUUCAAATT against PAFAH1B1 | inactive: 0.391
GGCAGAGAGUAAACAAGCATT against MIF4GD | inactive: 0.373
GAGGAUUAAUUUAAUCCUATT against GNE | inactive: 0.393
GCUUUAACGUGUCUGUGCATT against SLC25A5 | inactive: -0.0501
CCACACUGGUGAUAGACCATT against ZNF384 | inactive: -0.132
GGAGUACAGCAUCUCGGCATT against CACNG1 | inactive: -0.452
GCAUGGACUUUGCACCAAATT against SKIV2L | inactive: 0.209
ACCUCGCGCUAUUACCUCATT against KCTD12 | inactive: 0.431
GCCUAUCAGAAGCUCAUUUTT against ITGB8 | inactive: -0.0936
GAAUGAACAGGAGCUGUUATT against ADPGK | inactive: 0.373
GGGACAUUUCCAAAUGGAATT against ARL6IP5 | inactive: -0.202
CUGCAGGAAUUCUAUGAAATT against COPS2 | inactive: 0.202
GCUAUUUGCUGGCUACAAATT against POLR2J3 | active: -5.42
GCAGAGAGAUGAAGAUCUATT against ITGA5 | inactive: 0.915
GAUACUAGCUAUUUUGACATT against MAST2 | inactive: 0.27
GUGUGAGGUUUGUCAGAAATT against ZNF552 | inactive: 0.437
CCCUAUGUAUGUAACAAUUTT against ZNF124 | inactive: -0.487
GAGGCCUAGUGCAACCUAATT against LIPM | inactive: -0.00856

Retrieved one by one from the entries so far:
Sequence | median seed-adjusted z-score
GCUUUAACGUGUCUGUGCATT against SLC25A5 | inactive: -0.0501
GGAGUACAGCAUCUCGGCATT against CACNG1 | inactive: -0.452

Reference: PubChem BioAssay AID1347426 (Functional Genomics Laboratory (NCATS/FGL), 2020)
